Measurements as given in patent US9944666B2, “Compounds that are S1P modulating agents and/or ATX modulating agents” (BIOGEN MA INC., priority 2012, dated 2018).
Some of these results come from one statement about several compounds together.

Biological target: T1, Human ATX protein (Homo sapiens, UniProt Q13822)
T1 construct: made in house
Test: ATX biochemical FRET assay with FS-3 substrate
Details: FS-3 2 μM, ATX 1.0 μg/mL, room temperature 2 hours, fluorescence 485/538 nm
Excerpt: ATX (Autotaxin) is a 125 KDa glycoprotein with lysophospholipase D (LPLD) activity that generates the bioactive lipid lysophosphatidic acid (LPA) from lysophosphatidylcholine (LPC). The ATX biochemical assay utilizes a FRET (fluorescence resonance energy transfer) technology platform. The fluorescence signal of FRET substrate FS-3 is quenched due to intra-molecular FRET of a fluorophore to a non-fluorescing quencher (Ferguson, C. G., et al., Org Lett. 2006 May 11; 8(10): 2023-2026, which is incorporated by reference in its entirety). ATX catalyzes the hydrolysis of the substrate which separates the dabsyl quencher from the fluorescein reporter, which becomes fluorescent. The reaction is monitored by a SpectraMax M5 (Molecular Devices, Sunnyvale, Calif.) with at excitation wavelength 485 nm and emission wavelength […].
Fatty acid free-BSA (Sigma A8806): 10 mg/ml, in H2O, stored at 4° C.
2×ATX assay buffer: 100 mM Tris, 280 mM NaCl, 10 mM KCl, 2 mM CaCl2, 2 mM MgCl2, pH 7.4.
Human ATX protein: expressed and purified in house. Stored at −80° C.
Substrate FS-3 (Echelon, L-2000): 100 μg in 77.74 μL H2O (1 mM stock), stored at −20° C.
384-well flat bottom plates—Corning #3575.
Compound dilution—All compounds were provided at 10 mM in 100% DMSO. In the first well, 2 μL of 10 mM compound was added to 78 μL of DMSO (1:40 dilution). In subsequent wells 3-fold dilution (total 10 dilutions) were performed.
1×ATX assay buffer was made up with a final concentration of 1 mg/mL fatty acid free-BSA using 2×ATX assay buffer, 10 mg/ml fatty acid free-BSA and ddH2O.
ATX protein was diluted with 1×ATX assay buffer to a concentration of 1.32 μg/mL (1.32×). 38 μL was added per well to the assay plate. The final concentration of ATX in the reaction as 1.0 μg/mL.
2 μL per well of compounds was transferred to provide the desired concentration. The plate was centrifuged, then incubated at room temperature for 30 minutes on the shaker. […]
Fluorescence was measured using SpectraMax M5 (excitation at 485 nm/emission at 538 nm, top read).

| Substance | IC50 [nM] |
| --- | --- |
| 2-(2-(5-(difluoromethyl)-6-((cis-4-(trifluoromethyl)cyclohexyl)oxy)naphthalene-2-yl) acetyl)-2-azabicyclo[1.2.3]octane-7-carboxylic acid [Example 118] | ≤ 100 |
| 8-((5-(trifluoromethyl)-6-((cis-4-(trifluoromethyl)cyclohexyl)oxy)naphthalen-2-yl)methyl)-8-azabicyclo[3.2.1]octane-3-carboxylic acid [Example 181] | ≤ 100 |
| 9-(5-trifluoromethyl-6-(cis-4-trifluoromethyl-cyclohexyloxy)-naphthalen-2-ylmethyl)-9-aza-7-oxabicyclo[3.3.1]nonane-3-carboxylic acid [Example 167] | ≤ 250 |
